In PubChem BioAssay AID248 (DTP/NCI, 2004) one finds T/C data, which are given here for eight compounds.

This experiment has as its system L1210 leukemia ip in BDF1 mice, survival T/C. Kind of experiment: NCI In Vivo Anticancer Drug Screen. Data for tumor model L1210 Leukemia (intraperitoneal) in B6D2F1 (BDF1) mice. Conditions: T/C endpoint: mean survival time, higher T/C = longer survival.
The mark [1] stands for this setting: dose: 100.0 mg/kg/injection, schedule: Q01DX001 (ip), vehicle: saline.
The mark [2] stands for this setting: dose: 50.0 mg/kg/injection, schedule: Q01DX001 (ip), vehicle: Klucel (hydroxypropylcellulose) (HPC).
Setting [3] is: dose: 100.0 mg/kg/injection, schedule: Q01DX001 (ip), vehicle: Klucel (hydroxypropylcellulose) (HPC).
The mark [4] stands for this setting: dose: 200.0 mg/kg/injection, schedule: Q01DX001 (ip), vehicle: saline.
Setting [5] is: dose: 400.0 mg/kg/injection, schedule: Q01DX001 (ip), vehicle: saline.

Structures are written as SMILES. The list shows only some results of the screen, not a fair sample: it covers a few groups of compounds. Not every dose and run of a compound is shown. T/C: endpoint of the treated group in % of that of the vehicle group. Where survival is the endpoint, this PubChem deposit counts one and a half times the control or more as active, and values a quarter to a half above the control carry no call in these data; other NCI protocols may use other cut-offs. Some entries show no survivor count and are marked so; the dose need not have been tolerated. Schedules are NCI's codes, read here as Q, the interval in days (D) or hours (H), X, the number of doses. Some doses were run more than once; the values are given in rising order. Some schedules carry Z or #; the key to these is not given.

`Oc1ccc(Br)cc1CN(CCCl)CCCl`: the T/C was 93 % of control [survivor count not shown] (dose: 5.0 mg/kg/injection, schedule: Q01DX001 (ip), vehicle: saline); 113 % of control [survivor count not shown] (dose: 5.7 mg/kg/injection, schedule: Q01DX015 (ip), vehicle: saline); 113 % of control [survivor count not shown] (dose: 10.0 mg/kg/injection, schedule: Q01DX001 (ip), vehicle: saline); 120 % of control [survivor count not shown] (dose: 10.0 mg/kg/injection, schedule: Q01DX015 (ip), vehicle: saline); 124 % of control [survivor count not shown] (dose: 16.0 mg/kg/injection, schedule: Q01DX015 (ip), vehicle: saline); 116 % of control [survivor count not shown] (dose: 20.0 mg/kg/injection, schedule: Q01DX001 (ip), vehicle: saline). Besides, the T/C reads like this: (dose: 27.0 mg/kg/injection, schedule: Q01DX015 (ip), vehicle: saline) 95 % of control [survivor count not shown]; (dose: 35.0 mg/kg/injection, schedule: Q01DX001 (ip), vehicle: saline) 106 [survivor count not shown] and 122 % of control [survivor count not shown]; (dose: 40.0 mg/kg/injection, schedule: Q01DX001 (ip), vehicle: saline) 127 % of control [survivor count not shown]; (dose: 53.0 mg/kg/injection, schedule: Q01DX001 (ip), vehicle: saline) 117 [survivor count not shown] and 130 % of control [survivor count not shown]; (dose: 80.0 mg/kg/injection, schedule: Q01DX001 (ip), vehicle: saline) 117 [survivor count not shown], 121 [survivor count not shown], 133 % of control [survivor count not shown]; under setting [1], 110 % of control [survivor count not shown]. Besides, the T/C (dose: 120.0 mg/kg/injection, schedule: Q01DX001 (ip), vehicle: saline) was 127 % of control [survivor count not shown].

Turning to `Oc1ccc(Cl)cc1CN(CCCl)CCCl`, the T/C was 114 % of control [survivor count not shown] (dose: 6.2 mg/kg/injection, schedule: Q04DX003 (ip), vehicle: Klucel (hydroxypropylcellulose) (HPC)); 117 % of control [survivor count not shown] (dose: 12.5 mg/kg/injection, schedule: Q04DX003 (ip), vehicle: Klucel (hydroxypropylcellulose) (HPC)); 112 % of control [survivor count not shown] (dose: 25.0 mg/kg/injection, schedule: Q01DX001 (ip), vehicle: Klucel (hydroxypropylcellulose) (HPC)); 117 % of control [survivor count not shown] (dose: 25.0 mg/kg/injection, schedule: Q04DX003 (ip), vehicle: Klucel (hydroxypropylcellulose) (HPC)); 121 % of control [survivor count not shown] under setting [2]; 116 % of control [survivor count not shown] under setting [3].

Take `CCC1(CC)NC(=O)N(CCN(CCCl)CCCl)C1=O`: the T/C reads like this: (dose: 2.0 mg/kg/injection, schedule: Q04DX003 (ip), vehicle: saline with Tween-80) 104 % of control [survivor count not shown]; (dose: 4.0 mg/kg/injection, schedule: Q01DX009 (ip), vehicle: saline) 124 % of control [survivor count not shown]; (dose: 4.0 mg/kg/injection, schedule: Q04DX003 (ip), vehicle: saline with Tween-80) 112 % of control [survivor count not shown]; (dose: 5.2 mg/kg/injection, schedule: Q01DX009 (ip), vehicle: saline) 112 [survivor count not shown] and 123 % of control [survivor count not shown]; (dose: 8.0 mg/kg/injection, schedule: Q01DX009 (ip), vehicle: saline) 118 [survivor count not shown], 132 [survivor count not shown], 140 % of control [survivor count not shown]; (dose: 8.0 mg/kg/injection, schedule: Q04DX003 (ip), vehicle: saline with Tween-80) 126 % of control [survivor count not shown]. The T/C (dose: 12.0 mg/kg/injection, schedule: Q01DX009 (ip), vehicle: saline) is 101 [survivor count not shown] and 112 % of control [survivor count not shown]; the T/C (dose: 16.0 mg/kg/injection, schedule: Q01DX009 (ip), vehicle: saline) is 87 % of control [survivor count not shown]; the T/C (dose: 16.0 mg/kg/injection, schedule: Q04DX003 (ip), vehicle: saline) was 124 % of control [survivor count not shown]; the T/C (dose: 25.0 mg/kg/injection, schedule: Q04DX003 (ip), vehicle: saline) was 141 % of control [survivor count not shown].

For `CCCCP(=O)(Cl)N(CCCl)CCCl` (stereo not given), the T/C is 100 % of control [survivor count not shown] (dose: 50.0 mg/kg/injection, schedule: Q01DX001 (ip), vehicle: saline); 90 [survivor count not shown] and 114 % of control [survivor count not shown] (dose: 89.0 mg/kg/injection, schedule: Q01DX001 (ip), vehicle: saline); 111 % of control [survivor count not shown] under setting [1]; 95 [survivor count not shown] and 111 % of control [survivor count not shown] (dose: 133.0 mg/kg/injection, schedule: Q01DX001 (ip), vehicle: saline); 105 [survivor count not shown], 122 [survivor count not shown], 134 % of control [survivor count not shown] under setting [4]; 118 [survivor count not shown] and 131 % of control [survivor count not shown] (dose: 300.0 mg/kg/injection, schedule: Q01DX001 (ip), vehicle: saline). Further, the T/C under setting [5] was 125 % of control [survivor count not shown].

In the case of `ClCCN1CCCCC1CCl` (stereo not given), the T/C was 118 % of control [survivor count not shown] (dose: 0.31 mg/kg/injection, schedule: Q01DX009 (ip), vehicle: saline); 143 % of control [survivor count not shown] (dose: 0.63 mg/kg/injection, schedule: Q01DX009 (ip), vehicle: saline); 120 % of control [survivor count not shown] (dose: 0.63 mg/kg/injection, schedule: Q04DX003 (ip), vehicle: saline); 112 % of control [survivor count not shown] (dose: 1.25 mg/kg/injection, schedule: Q04DX003 (ip), vehicle: saline).

Regarding `CCCc1[nH]c(=S)[nH]c(=O)c1CN(CCCl)CCCl`, the T/C is 117 % of control [survivor count not shown] (dose: 3.1 mg/kg/injection, schedule: Q04DX002 (ip), vehicle: Klucel (hydroxypropylcellulose) (HPC)); 113 % of control [survivor count not shown] (dose: 6.25 mg/kg/injection, schedule: Q04DX002 (ip), vehicle: Klucel (hydroxypropylcellulose) (HPC)); 129 % of control [survivor count not shown] (dose: 12.5 mg/kg/injection, schedule: Q04DX002 (ip), vehicle: Klucel (hydroxypropylcellulose) (HPC)); 123 % of control [survivor count not shown] (dose: 25.0 mg/kg/injection, schedule: Q04DX002 (ip), vehicle: Klucel (hydroxypropylcellulose) (HPC)).

As to `c1ccc(NC2CCN(C3CC3c3ccccc3)CC2)cc1` (stereo not given), the T/C reads like this: under setting [2], 94 % of control [survivor count not shown]; under setting [3], 97 % of control [survivor count not shown]; (dose: 200.0 mg/kg/injection, schedule: Q01DX001 (ip), vehicle: Klucel (hydroxypropylcellulose) (HPC)) 94 % of control [survivor count not shown].

Consider `CCOC(=O)CNC(=O)C[N+](C)(CCCl)CCCl`, for which the T/C reads like this: (dose: 2.5 mg/kg/injection, schedule: Q01DX Z (ip), vehicle: saline) 107 % of control [survivor count not shown]; (dose: 5.0 mg/kg/injection, schedule: Q01DX Z (ip), vehicle: saline) 102 % of control [survivor count not shown]; (dose: 10.0 mg/kg/injection, schedule: Q01DX Z (ip), vehicle: saline) 93 [survivor count not shown] and 111 % of control [survivor count not shown]; (dose: 20.0 mg/kg/injection, schedule: Q01DX Z (ip), vehicle: saline) 96 % of control [survivor count not shown]; (dose: 40.0 mg/kg/injection, schedule: Q01DX Z (ip), vehicle: saline) 114 % of control [survivor count not shown]; under setting [1], 109 % of control [survivor count not shown]. In addition, the T/C runs as follows: under setting [4], 107 % of control [survivor count not shown]; under setting [5], 106 % of control [survivor count not shown].
